Experimental data published in paper PMC4494947.
No constants are given. Whether binding was seen depends on the method and setting. In cells and extracts the contact can be indirect. Sequences can lack the tags named with a protein.

By UniProt entry, the sequences of proteins in these tests, tags left out. Residues count along the entry.
UniProt P09211: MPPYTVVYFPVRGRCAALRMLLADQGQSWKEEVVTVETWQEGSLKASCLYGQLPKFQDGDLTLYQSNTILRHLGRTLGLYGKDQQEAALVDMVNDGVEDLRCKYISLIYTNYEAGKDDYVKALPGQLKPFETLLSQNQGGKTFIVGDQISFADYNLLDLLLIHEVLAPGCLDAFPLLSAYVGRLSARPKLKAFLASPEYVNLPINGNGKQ
UniProt P98161, residues 24-4303: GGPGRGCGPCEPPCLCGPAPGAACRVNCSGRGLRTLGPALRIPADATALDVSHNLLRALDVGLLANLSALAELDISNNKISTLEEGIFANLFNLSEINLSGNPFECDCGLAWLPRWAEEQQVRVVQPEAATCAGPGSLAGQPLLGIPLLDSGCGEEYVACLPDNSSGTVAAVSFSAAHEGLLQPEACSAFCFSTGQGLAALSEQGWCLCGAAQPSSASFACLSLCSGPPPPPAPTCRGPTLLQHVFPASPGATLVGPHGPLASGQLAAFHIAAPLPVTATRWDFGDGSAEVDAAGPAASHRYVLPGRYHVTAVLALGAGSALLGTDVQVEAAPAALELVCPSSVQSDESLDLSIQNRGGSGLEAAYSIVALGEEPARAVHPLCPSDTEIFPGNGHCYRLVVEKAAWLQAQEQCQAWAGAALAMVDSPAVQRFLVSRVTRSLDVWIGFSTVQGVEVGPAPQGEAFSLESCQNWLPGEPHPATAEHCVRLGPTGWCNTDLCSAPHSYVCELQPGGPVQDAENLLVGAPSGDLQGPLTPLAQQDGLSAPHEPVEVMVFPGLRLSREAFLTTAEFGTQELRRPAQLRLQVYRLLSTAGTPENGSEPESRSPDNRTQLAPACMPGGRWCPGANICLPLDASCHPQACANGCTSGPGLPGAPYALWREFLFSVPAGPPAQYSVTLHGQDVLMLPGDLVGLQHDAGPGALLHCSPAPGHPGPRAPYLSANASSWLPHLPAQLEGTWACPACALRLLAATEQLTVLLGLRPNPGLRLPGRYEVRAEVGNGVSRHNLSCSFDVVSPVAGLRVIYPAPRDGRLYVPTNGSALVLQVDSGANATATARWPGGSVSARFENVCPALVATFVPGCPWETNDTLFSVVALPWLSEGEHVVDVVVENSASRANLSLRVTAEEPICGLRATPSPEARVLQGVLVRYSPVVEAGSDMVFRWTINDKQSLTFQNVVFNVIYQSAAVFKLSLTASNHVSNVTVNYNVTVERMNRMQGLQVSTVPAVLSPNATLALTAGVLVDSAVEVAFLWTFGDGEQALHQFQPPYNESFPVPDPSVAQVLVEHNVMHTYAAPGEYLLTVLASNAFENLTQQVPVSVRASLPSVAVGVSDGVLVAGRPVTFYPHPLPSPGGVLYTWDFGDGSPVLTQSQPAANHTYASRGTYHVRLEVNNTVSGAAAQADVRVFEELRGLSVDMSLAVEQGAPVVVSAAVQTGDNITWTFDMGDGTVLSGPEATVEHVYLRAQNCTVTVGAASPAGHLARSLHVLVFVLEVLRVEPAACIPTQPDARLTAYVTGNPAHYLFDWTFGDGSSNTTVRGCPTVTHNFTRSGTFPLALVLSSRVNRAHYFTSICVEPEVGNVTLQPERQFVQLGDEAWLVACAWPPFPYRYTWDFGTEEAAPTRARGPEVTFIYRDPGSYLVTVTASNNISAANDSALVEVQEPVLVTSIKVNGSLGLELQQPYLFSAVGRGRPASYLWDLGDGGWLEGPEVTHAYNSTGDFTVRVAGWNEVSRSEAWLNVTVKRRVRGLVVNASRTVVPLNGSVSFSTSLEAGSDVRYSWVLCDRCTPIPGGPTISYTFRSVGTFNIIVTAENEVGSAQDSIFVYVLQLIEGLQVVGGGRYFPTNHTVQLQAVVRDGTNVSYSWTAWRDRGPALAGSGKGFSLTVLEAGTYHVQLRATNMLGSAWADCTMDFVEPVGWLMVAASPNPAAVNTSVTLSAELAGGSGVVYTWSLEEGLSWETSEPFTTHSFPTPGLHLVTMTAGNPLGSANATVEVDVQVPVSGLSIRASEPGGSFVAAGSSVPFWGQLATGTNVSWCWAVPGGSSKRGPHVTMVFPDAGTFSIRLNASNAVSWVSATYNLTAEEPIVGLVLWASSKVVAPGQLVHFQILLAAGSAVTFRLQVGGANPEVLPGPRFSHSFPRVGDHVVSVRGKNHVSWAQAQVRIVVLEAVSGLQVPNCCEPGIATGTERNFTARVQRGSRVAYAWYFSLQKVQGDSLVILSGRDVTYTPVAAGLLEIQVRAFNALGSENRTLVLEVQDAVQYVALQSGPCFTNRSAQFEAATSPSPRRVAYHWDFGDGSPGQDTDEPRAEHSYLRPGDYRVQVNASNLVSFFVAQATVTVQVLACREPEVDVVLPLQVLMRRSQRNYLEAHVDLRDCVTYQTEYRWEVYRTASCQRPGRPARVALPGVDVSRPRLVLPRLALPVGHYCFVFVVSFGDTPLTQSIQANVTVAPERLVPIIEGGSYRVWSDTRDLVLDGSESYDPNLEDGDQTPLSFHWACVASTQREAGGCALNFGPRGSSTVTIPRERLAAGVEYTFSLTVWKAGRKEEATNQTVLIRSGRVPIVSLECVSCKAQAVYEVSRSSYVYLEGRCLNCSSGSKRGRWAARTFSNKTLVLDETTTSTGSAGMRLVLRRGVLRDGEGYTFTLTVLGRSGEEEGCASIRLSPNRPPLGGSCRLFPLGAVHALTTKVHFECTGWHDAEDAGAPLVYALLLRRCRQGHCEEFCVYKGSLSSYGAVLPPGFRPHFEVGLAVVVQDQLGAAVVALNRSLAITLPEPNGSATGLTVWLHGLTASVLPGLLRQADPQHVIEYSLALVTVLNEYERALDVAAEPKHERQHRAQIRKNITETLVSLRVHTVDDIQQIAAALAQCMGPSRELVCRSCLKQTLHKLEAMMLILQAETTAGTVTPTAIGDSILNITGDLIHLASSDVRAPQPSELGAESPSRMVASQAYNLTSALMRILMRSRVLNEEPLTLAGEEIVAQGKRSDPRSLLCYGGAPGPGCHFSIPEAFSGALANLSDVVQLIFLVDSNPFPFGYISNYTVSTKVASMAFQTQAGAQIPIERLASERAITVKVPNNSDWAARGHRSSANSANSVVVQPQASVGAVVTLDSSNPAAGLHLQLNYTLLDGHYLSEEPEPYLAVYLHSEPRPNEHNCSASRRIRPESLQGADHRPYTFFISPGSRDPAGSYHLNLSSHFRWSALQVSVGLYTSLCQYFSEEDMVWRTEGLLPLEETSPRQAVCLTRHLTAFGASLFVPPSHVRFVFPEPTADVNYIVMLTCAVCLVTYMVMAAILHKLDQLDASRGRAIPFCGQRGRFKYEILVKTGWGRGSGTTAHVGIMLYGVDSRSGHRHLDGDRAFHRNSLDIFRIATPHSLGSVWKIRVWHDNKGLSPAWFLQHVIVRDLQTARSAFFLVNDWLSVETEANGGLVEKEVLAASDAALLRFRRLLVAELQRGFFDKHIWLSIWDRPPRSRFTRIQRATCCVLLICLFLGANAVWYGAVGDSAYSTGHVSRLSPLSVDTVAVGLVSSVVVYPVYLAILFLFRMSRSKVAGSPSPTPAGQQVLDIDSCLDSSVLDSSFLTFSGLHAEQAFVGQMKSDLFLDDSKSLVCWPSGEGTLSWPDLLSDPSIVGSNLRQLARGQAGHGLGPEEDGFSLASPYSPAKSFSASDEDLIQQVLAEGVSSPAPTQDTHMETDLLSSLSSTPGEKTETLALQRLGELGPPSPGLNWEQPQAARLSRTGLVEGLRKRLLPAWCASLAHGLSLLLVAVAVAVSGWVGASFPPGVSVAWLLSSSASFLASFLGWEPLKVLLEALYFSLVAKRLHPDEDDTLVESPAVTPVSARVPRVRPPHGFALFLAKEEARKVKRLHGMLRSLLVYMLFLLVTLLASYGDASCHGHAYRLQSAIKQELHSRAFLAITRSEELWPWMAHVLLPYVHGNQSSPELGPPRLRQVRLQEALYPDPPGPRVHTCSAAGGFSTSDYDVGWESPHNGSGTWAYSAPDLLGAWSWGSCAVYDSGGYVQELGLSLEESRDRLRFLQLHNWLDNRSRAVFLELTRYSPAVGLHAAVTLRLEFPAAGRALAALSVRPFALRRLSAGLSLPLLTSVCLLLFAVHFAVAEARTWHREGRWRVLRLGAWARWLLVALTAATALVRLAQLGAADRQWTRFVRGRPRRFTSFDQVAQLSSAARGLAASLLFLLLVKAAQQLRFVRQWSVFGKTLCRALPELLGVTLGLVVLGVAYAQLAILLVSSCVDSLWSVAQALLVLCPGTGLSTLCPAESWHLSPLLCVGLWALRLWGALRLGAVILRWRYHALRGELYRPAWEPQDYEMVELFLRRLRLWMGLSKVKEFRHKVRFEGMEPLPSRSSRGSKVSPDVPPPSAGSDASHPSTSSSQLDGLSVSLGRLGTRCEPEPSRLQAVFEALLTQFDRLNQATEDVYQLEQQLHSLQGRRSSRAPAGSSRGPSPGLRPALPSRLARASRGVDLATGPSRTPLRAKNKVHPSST

T1: NHE9 with Flag tag (human) (UniProt Q8IVB4)
T1 sequence: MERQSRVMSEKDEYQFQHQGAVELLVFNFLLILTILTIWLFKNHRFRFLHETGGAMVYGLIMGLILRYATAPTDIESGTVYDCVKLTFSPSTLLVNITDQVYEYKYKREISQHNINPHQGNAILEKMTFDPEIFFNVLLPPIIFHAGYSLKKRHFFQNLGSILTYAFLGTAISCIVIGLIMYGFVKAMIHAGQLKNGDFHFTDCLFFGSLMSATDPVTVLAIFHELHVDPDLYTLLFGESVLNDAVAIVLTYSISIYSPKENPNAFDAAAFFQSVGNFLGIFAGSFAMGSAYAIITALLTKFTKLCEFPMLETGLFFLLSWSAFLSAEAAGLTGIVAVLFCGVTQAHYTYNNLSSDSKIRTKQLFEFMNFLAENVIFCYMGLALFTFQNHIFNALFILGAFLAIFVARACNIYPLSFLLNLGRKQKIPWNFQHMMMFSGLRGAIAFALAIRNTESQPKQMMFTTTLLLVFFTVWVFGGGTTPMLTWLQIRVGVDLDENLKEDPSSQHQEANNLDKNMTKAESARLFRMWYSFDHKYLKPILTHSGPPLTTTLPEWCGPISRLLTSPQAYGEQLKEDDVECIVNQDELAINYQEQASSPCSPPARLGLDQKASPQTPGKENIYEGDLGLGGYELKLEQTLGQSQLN


Target: T1, NHE9 with Flag tag (human)
Experiment: co-IP; lysates of NHE9 (Flag) stable transfectants transfected with myc-tagged partner; lysis buffer 20 mM Tris pH 7.5, 150 mM NaCl, 1% Triton X-100, 1 mM EDTA; anti-Flag beads, or anti-Myc antibody with Protein-A/G-agarose; blots with anti-Myc or anti-FLAG; also done after treatment of the cells with cisplatin, vinorelbine or X-rays (binding relatively weaker)

Row | binding | Molecule
1 | no binding | GSTP1 in pcDNA6/myc-HisB (from UniProt P09211 1-210)
2 | no binding | PKD1 in pcDNA6/myc-HisB (from UniProt P98161 24-4303)
3 | no binding | LIGO4 in pcDNA6/myc-HisB (protein, UniProt Q6UY18 29-593) GSCPAVCDCTSQPQAVLCGHRQLEAVPGGLPLDTELLDLSGNRLWGLQQGMLSRLSLLQELDLSYNQLSTLEPGAFHGLQSLLTLRLQGNRLRIMGPGVFSGLSALTLLDLRLNQIVLFLDGAFGELGSLQKLEVGDNHLVFVAPGAFAGLAKLSTLTLERCNLSTVPGLALARLPALVALRLRELDIGRLPAGALRGLGQLKELEIHLWPSLEALDPGSLVGLNLSSLAITRCNLSSVPFQALYHLSFLRVLDLSQNPISAIPARRLSPLVRLQELRLSGACLTSIAAHAFHGLTAFHLLDVADNALQTLEETAFPSPDKLVTLRLSGNPLTCDCRLLWLLRLRRHLDFGMSPPACAGPHHVQGKSLKEFSDILPPGHFTCKPALIRKSGPRWVIAEEGGHAVFSCSGDGDPAPTVSWMRPHGAWLGRAGRVRVLEDGTLEIRSVQLRDRGAYVCVVSNVAGNDSLRTWLEVIQVEPPNGTLSDPNITVPGIPGPFFLDSRGVAMVLAVGFLPFLTSVTLCFGLIALWSKGKGRVKHHMTFDFVAPRPSGDKNSGGNRVTAKLF
